# Some of the results follow. Many values rest on one well or one pass, so single values are uncertain.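 The cells are hepatocyte-like cells grown from human stem cells in which the DGUOK gene was disrupted by CRISPR, a model of liver mtDNA depletion syndrome. Each well's ATP signal was scored against the other wells on its plate, and a drug counted as a primary hit when its score was 3 or higher.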 Starred links: 1 amine or outer side, 2 acyl side, 3 side chain; linkers in the order of their positions; H or OH if unused. Non-standard residues stand in square brackets, D forms with d. Residues, ends and D or L forms follow the SMILES beside them. ξ: configuration not given here. *: point of attachment. X3 = O=C([C@H](N[*:1])C1CCC(O)CC1)[*:2]; X5 = O=C(C(N[*:1])C1CCC(O)C(Cl)C1)[*:2]; X4 = O=C(C(N[*:1])C1CCC(O)CC1)[*:2]; aThr = C[C@H](O)[C@H](N)C(=O)O; dOrn = NCCC[C@@H](N)C(=O)O; X2 = CCC/C=C\C=C/C(=O)*; ξN = NC(=O)CC(N)C(=O)O
# System: DGUOK Δ14/Δ5 iPSC-derived hepatocyte-like cells (SV20)
# Assay: ATP level (CellTiter-Glo luminescence) Z score relative to plate distribution, under 2-DG glycolysis block; higher = more cellular ATP (rescue of mitochondrial ATP production)
# Conditions: 5 µM; treatment time: day 15 to day 20 of differentiation (5 days); 2-deoxy-D-glucose: 20 mM for 24 h before assay
row,Structure (SMILES),ATP level
1,CN(C)CCC=C1c2ccccc2COc2ccccc21,inactive: -15.6
2,CC(C)[N+](C)(CCOC(=O)C1c2ccccc2Oc2ccccc21)C(C)C,inactive: -0.813
3,CN1CCC[C@@H]1Cc1c[nH]c2ccc(CCS(=O)(=O)c3ccccc3)cc12,inactive: 0.709
4,Nc1ccccc1S(N)(=O)=O,inactive: 0.118
5,CC1=CC(=O)C(C(C)C)=CC1=O,inactive: 1.72
6,OCc1cccnc1,inactive: -18.8
7,O=Cc1ccccc1O[C@@H]1O[C@H](CO)[C@@H](O)[C@H](O)[C@H]1O,inactive: -2.31
8,O=C(O)c1cn(C2CC2)c2cc(N3CCNCC3)c(F)cc2c1=O,inactive: -0.493
9,CCOc1nc2cccc(C(=O)OCc3oc(=O)oc3C)c2n1Cc1ccc(-c2ccccc2-c2noc(=O)[nH]2)cc1,inactive: 1.94
10,Cn1c(=O)[nH]c2ncn(C)c2c1=O,inactive: 1.16
11,C#CCN[C@@H]1CCc2ccccc21,inactive: -0.458
12,Cc1cc(C(C)(C)C)c(O)c(C(C)(C)C)c1,inactive: -0.575
13,COc1ccc2c(c1)OCC(Cc1ccc(OC)c(O)c1)C2=O (configuration not stated),inactive: -0.066
14,C=CCSSSCC=C,inactive: -0.00246
15,O=C(O)C1CC([C@@H]2CCCCN2)CN2CCCCC12 (some centres not stated),inactive: 1.72
16,COc1cc(C(=O)NCc2ccc(OCCN(C)C)cc2)cc(OC)c1OC,inactive: -10.9
17,O=c1cc(CO)occ1O,inactive: -2.23
18,C[C@@H]1CC[C@H]2[C@](C)(CO)[C@@H](O)CC[C@]2(C)[C@@]12CC[C@@](CO)(CCO)O2,inactive: -4.26
19,CCC/C=C\C=C/C(=O)N[C@@H](CC(N)=O)C(=O)NC(CC(N)=O)C(=O)N[C@@H](C(=O)N[C@H](CCCN)C(=O)N[C@@H](C(=O)N[C@@H](C(=O)N[C@@H](C(=O)N[C@H](C(=O)N[C@@H](Cc1ccccc1)C(=O)N[C@H](CCCN)C(=O)NC(C(=O)N[C@H](C(=O)NC(C(=O)NCC(=O)N[C@@H](CC(C)C)C(=O)N[C@H](C)C(=O)NC(C(=O)O)C1CCC(O)C(Cl)C1)C1CCC(O)CC1)[C@H](C)O)C1CCC(O)CC1)[C@H](C)O)C1CCC(O)CC1)C1CCC(O)CC1)[C@H](C)O)C1CCC(O)CC1 (some centres not stated) [RAMOPLANIN [A2 shown; 2mM]] (X2-N[ξN][X3][dOrn][dT][X3][X3][aThr]F[dOrn][X4][aThr][X4]GL[dA][X5]-OH),inactive: -0.0656
20,CC(C)c1c(O)c(-c2cc3c(c(C(C)C)c2O)CCC2C(C)(C)CCC[C@]32C)cc2c1CCC1C(C)(C)CCC[C@]21C (some centres not stated),inactive: 0.939
21,C1CCC(C(CC2CCCCN2)C2CCCCC2)CC1 (configuration not stated),inactive: -29.5
22,CN1CC(=O)N2[C@H](c3ccc4c(c3)OCO4)c3[nH]c4ccccc4c3C[C@@H]2C1=O,inactive: -3.47
23,CC1=C2C(=CO[C@H](C)[C@H]2C)C(=O)C(C(=O)O)=C1O,inactive: -0.641
24,O=C1C=C(O)c2ccccc2C1=O,inactive: -1.39
25,CC(C)NCC(O)COc1ccc(CCOCC2CC2)cc1 (configuration not stated),inactive: 0.688
26,CC(=O)[C@@]1(O)CC[C@H]2[C@@H]3C[C@H](C)C4=CC(=O)C=C[C@]4(C)[C@@]3(F)[C@@H](O)C[C@@]21C,inactive: 1.47

row,Structure (SMILES),ATP level
1,CCc1nc(N)nc(N)c1-c1ccc(Cl)cc1,inactive: -13.9
2,C#CCCCCCCCCCCCC(O)CC(O)COC(C)=O.C=CCCCCCCCCCCCC(O)CC(O)COC(C)=O (configuration not stated),active: 5.4
3,O=C1/C(=C/c2cccs2)CCC/C1=C\c1cccs1,inactive: 0.758
4,C=CC(C1=CC(=O)C(OC)=CC1=O)c1ccccc1 (configuration not stated),inactive: -0.751
5,Clc1ccc(C(Cn2ccnc2)OCc2ccsc2Cl)c(Cl)c1 (configuration not stated),inactive: -0.193
6,C[C@](N)(Cc1ccc(O)c(O)c1)C(=O)O,active: 3.47
7,CC[C@H]1C(=O)OC[C@@H]1Cc1cncn1C,inactive: -1.24
8,O=C(O)C(=O)O.[NH-][C@@H]1CCCC[C@H]1[NH-].[Pt+2],inactive: -0.483
9,COc1c(CC(=O)c2cc3c(cc2O)OC(C)(C)C(O)C3)ccc2c1C=CC(C)(C)O2 (configuration not stated),inactive: -0.723
10,CCOC(=O)COc1ccc2c(=O)cc(-c3ccccc3)oc2c1,inactive: -0.0447
11,CC(N)CCCC(C)(C)O (configuration not stated),inactive: 0.245
12,CN1CCCN=C1/C=C/c1cccc(O)c1,inactive: -13.4
13,N#CCC(=O)NN,inactive: -0.775
14,Oc1cccc(O)c1,inactive: -0.747
15,CC(=O)N(c1onc(C)c1C)S(=O)(=O)c1ccc(N)cc1,inactive: 1.16
16,Cc1cc(O)cc(C)c1Cl,inactive: -1.12
17,C=C1CCC(C2CC(=O)OC2=O)C(=O)CCC2C1CC2(C)C (configuration not stated),inactive: 2
18,COC1=CC(=O)c2ccccc2C1=O,inactive: 0.877
19,CC=CC1=C(C(=O)O)N2C(=O)[C@@H](NC(=O)[C@H](N)c3ccc(O)cc3)[C@H]2SC1,inactive: 0.877
20,O=C1c2ccccc2C(=O)C1c1ccc(Br)cc1,inactive: -1.09
21,Cc1cc2c(s1)Nc1ccccc1N=C2N1CCN(C)CC1,inactive: -0.999
22,CC1(C)C(O[C@@H]2OC[C@@H](O)[C@H](O)[C@H]2O)CC[C@]23CC24CC[C@]2(C)[C@@H]([C@@]5(C)CC[C@@H](C(C)(C)O)O5)[C@H](O)C[C@@]2(C)C4C[C@@H](O[C@@H]2O[C@H](CO)[C@@H](O)[C@H](O)[C@H]2O)C13 (some centres not stated),inactive: 0.38
23,CCOC(=S)SSC(=S)OCC,inactive: 2.97
24,Cc1c(O)c(=O)n(-c2ccccc2)n1C,inactive: 0.797
25,C[C@H]1[C@H](C)CC[C@]2(C(=O)O[C@@H]3O[C@H](CO[C@@H]4O[C@H](CO)[C@@H](O[C@@H]5O[C@H](C)[C@H](O)[C@@H](O)[C@H]5O)[C@H](O)[C@H]4O)[C@@H](O)[C@H](O)[C@H]3O)CC[C@]3(C)C(=CC[C@@H]4[C@@]5(C)C[C@@H](O)[C@H](O)[C@@](C)(CO)[C@@H]5CC[C@]43C)[C@H]12,inactive: -2.72
26,CC(C)OC(=O)C(C)(C)Oc1ccc(C(=O)c2ccc(Cl)cc2)cc1,inactive: 0.361

# An excerpt of these results, bar-delimited:
row | Structure (SMILES) | ATP level
2 | C#CCCCCCCCCCCCC(O)CC(O)COC(C)=O.C=CCCCCCCCCCCCC(O)CC(O)COC(C)=O (configuration not stated) | active: 5.4
7 | CC[C@H]1C(=O)OC[C@@H]1Cc1cncn1C | inactive: -1.24
9 | COc1c(CC(=O)c2cc3c(cc2O)OC(C)(C)C(O)C3)ccc2c1C=CC(C)(C)O2 (configuration not stated) | inactive: -0.723
12 | CN1CCCN=C1/C=C/c1cccc(O)c1 | inactive: -13.4
13 | N#CCC(=O)NN | inactive: -0.775
14 | Oc1cccc(O)c1 | inactive: -0.747
15 | CC(=O)N(c1onc(C)c1C)S(=O)(=O)c1ccc(N)cc1 | inactive: 1.16
17 | C=C1CCC(C2CC(=O)OC2=O)C(=O)CCC2C1CC2(C)C (configuration not stated) | inactive: 2
18 | COC1=CC(=O)c2ccccc2C1=O | inactive: 0.877
21 | Cc1cc2c(s1)Nc1ccccc1N=C2N1CCN(C)CC1 | inactive: -0.999
25 | C[C@H]1[C@H](C)CC[C@]2(C(=O)O[C@@H]3O[C@H](CO[C@@H]4O[C@H](CO)[C@@H](O[C@@H]5O[C@H](C)[C@H](O)[C@@H](O)[C@H]5O)[C@H](O)[C@H]4O)[C@@H](O)[C@H](O)[C@H]3O)CC[C@]3(C)C(=CC[C@@H]4[C@@]5(C)C[C@@H](O)[C@H](O)[C@@](C)(CO)[C@@H]5CC[C@]43C)[C@H]12 | inactive: -2.72
26 | CC(C)OC(=O)C(C)(C)Oc1ccc(C(=O)c2ccc(Cl)cc2)cc1 | inactive: 0.361
